From patent US20240390464A1, “Treatment of Adults With Overweight or Obesity With or Without Weight-Related Comorbidities” (Carmot Therapeutics Inc., priority 2023, published 2024)
Not every detail of the peptide structures is certain; ends, links or a residue may be inferred. For at least one compound, name, drawing or mass did not settle the structure. Marks after values point to notes of the source that are not given here. Numbered stars: 1 amine (or outer) side, 2 acyl side, 3 side chain; on linkers, the order of the positions; unused ones are H or OH. Square brackets hold non-standard residues; d marks the D form. Side chains are listed from the residue outwards. Peptide text beside a SMILES is read from it. * marks the point of attachment. Isobutyryl(2-(3-CN-5-F-Ph)) = CC(C)(C(=O)*)c1cc(F)cc(C#N)c1; C20 diacid = O=C(O)CCCCCCCCCCCCCCCCCCC(=O)*; γGlu = O=C(O)[C@H](CCC(=O)[*:2])N[*:1]; AEEA = NCCOCCOCC(=O)O; Aib = CC(C)(N)C(=O)O; βAla = NCCC(=O)O

By UniProt entry, the sequences of proteins in these tests, tags left out. Residues count along the entry.
UniProt P43220, 24-463: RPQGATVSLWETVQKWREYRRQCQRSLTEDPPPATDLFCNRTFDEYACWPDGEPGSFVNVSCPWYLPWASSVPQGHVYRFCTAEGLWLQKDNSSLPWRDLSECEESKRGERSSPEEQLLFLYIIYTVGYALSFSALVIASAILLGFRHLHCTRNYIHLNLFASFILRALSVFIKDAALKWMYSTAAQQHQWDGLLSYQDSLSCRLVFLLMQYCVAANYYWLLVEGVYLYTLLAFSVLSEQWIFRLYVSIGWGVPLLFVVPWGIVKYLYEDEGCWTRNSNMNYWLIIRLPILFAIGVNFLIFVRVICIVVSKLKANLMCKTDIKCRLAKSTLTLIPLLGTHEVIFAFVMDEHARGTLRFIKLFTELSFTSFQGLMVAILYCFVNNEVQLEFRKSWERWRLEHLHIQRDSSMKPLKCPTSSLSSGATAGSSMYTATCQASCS

How the values were obtained:
GLP-1R = GLP-1R (Homo sapiens, UniProt P43220); assay: cAMP and β-arrestin signaling at GLP-1R; format: cell-based
GIPR = target: T1, GIPR (Homo sapiens, UniProt P48546); assay: cAMP and β-arrestin signaling at GIPR; format: cell-based
T1 sequence (P48546 22-466): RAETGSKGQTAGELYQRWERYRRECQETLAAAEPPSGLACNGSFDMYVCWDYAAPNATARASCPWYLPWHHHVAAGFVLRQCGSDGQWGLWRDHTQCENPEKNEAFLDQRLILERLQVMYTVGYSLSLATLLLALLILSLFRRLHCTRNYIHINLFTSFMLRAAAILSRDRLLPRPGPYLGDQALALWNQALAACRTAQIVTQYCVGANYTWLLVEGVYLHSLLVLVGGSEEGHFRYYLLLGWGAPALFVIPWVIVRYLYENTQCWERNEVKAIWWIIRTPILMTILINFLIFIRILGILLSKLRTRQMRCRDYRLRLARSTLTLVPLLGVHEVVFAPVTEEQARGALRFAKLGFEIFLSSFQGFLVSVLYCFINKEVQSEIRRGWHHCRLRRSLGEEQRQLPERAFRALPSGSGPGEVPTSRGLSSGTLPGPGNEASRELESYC

[1] = chronic toxicology, repeat dosing 26 weeks; format: in vivo; conditions: rats, repeat dosing over 26-weeks
Description: (§1) Thus, CT-388 can be a potent drug that induces significant weight loss and helps achieve optimal glycemic control, with acceptable tolerability, in overweight or obese adults with or without T2DM or other weight-related comorbidities. CT-388 can potentially be used as a non-invasive alternative to bariatric surgery for weight management.

[2] = chronic toxicology, repeat dosing 39 weeks; format: in vivo; conditions: monkeys, repeat dosing over 39-weeks
Description: as §1

[3] = Phase 1 MAD Cohorts 6-8: body weight and waist circumference; format: in vivo, human; conditions: for percent change in body weight from baseline, placebo adjusted least square mean difference: Day 29; for placebo-adjusted weight loss (LS Means): after 4 weeks
[4] = Phase 1 MAD Cohorts 6-8: fasting glucose homeostasis and OGTT; format: in vivo, human
[5] = Day 23, cohorts dosed up to 12 mg
[6] = after four doses, Cohort 6, 5/5/5/7.5 mg
[7] = after four doses, Cohort 7, 5/5/8/12 mg

## CC[C@H](C)[C@H](NC(=O)[C@H](CC(C)C)NC(=O)[C@H](Cc1c[nH]c2ccccc12)NC(=O)[C@H](CCC(N)=O)NC(=O)[C@@H](NC(=O)[C@H](Cc1ccccc1)NC(=O)[C@H](C)NC(=O)[C@H](CCCCNC(=O)COCCOCCNC(=O)COCCOCCNC(=O)CC[C@H](NC(=O)CCCCCCCCCCCCCCCCCCC(=O)O)C(=O)O)NC(=O)[C@H](CCC(N)=O)NC(=O)[C@H](C)NC(=O)[C@@H](NC(=O)[C@H](CCCCN)NC(=O)[C@H](CC(=O)O)NC(=O)[C@H](CC(C)C)NC(=O)C(C)(C)NC(=O)[C@@H](NC(=O)[C@H](CO)NC(=O)[C@H](Cc1ccc(O)cc1)NC(=O)[C@H](CC(=O)O)NC(=O)[C@H](CO)NC(=O)[C@@H](NC(=O)[C@H](Cc1ccccc1)NC(=O)[C@@H](NC(=O)CNC(=O)[C@H](CCC(=O)O)NC(=O)CCNC(=O)C(C)(C)c1cc(F)cc(C#N)c1)[C@@H](C)O)[C@@H](C)O)[C@@H](C)CC)[C@@H](C)CC)C(C)C)C(=O)N[C@@H](C)C(=O)NCC(=O)NCC(=O)N1CCC[C@H]1C(=O)N[C@@H](CO)C(=O)N[C@@H](CO)C(=O)NCC(=O)N[C@@H](C)C(=O)N1CCC[C@H]1C(=O)N1CCC[C@H]1C(=O)N1CCC[C@H]1C(=O)N[C@@H](CO)C(N)=O [CT-388] ({Isobutyryl(2-(3-CN-5-F-Ph))-βAla}-EGTFTSDYSI[Aib]LDKIAQK([AEEA-AEEA-γGlu-C20 diacid])AFVQWLIAGGPSSGAPPPS-NH2)
GLP-1R
  activates production of cyclic adenosine monophosphate (cAMP): potently activates
  activity on the β-arrestin signaling pathways: no or minimal activity
  receptor internalization and desensitization: does not cause internalization
GIPR
  activates production of cyclic adenosine monophosphate (cAMP): potently activates
  activity on the β-arrestin signaling pathways: no or minimal activity
  receptor internalization and desensitization: does not cause internalization
[1]
  weight loss: up to 10%
[2]
  weight loss: up to 10%
[3]; Cohort 6, 5/5/5/7.5 mg SC QW
  percent change in body weight from baseline, placebo adjusted least square mean difference: −4.8%
  placebo-adjusted weight loss (LS Means): 3.7 kg
[3]; Cohort 7, 5/5/8/12 mg SC QW
  percent change in body weight from baseline, placebo adjusted least square mean difference: −6.4%
  placebo-adjusted weight loss (LS Means): 6.0 kg
[3]; Cohort 8, 5/8/12/12 mg SC QW
  percent change in body weight from baseline, placebo adjusted least square mean difference: −8.5%
  placebo-adjusted weight loss (LS Means): 7.4 kg
[3]; MAD Cohorts 6-8, Day 29
  waist circumference: decrease
[3]; MAD Cohorts 6-8 after 4 weekly doses
  persistence of weight loss effects following CT-388 discontinuation: up to 2 weeks
[3]; in 4 weeks, overweight and obese adults, SC QW
  weight loss: more than 8%
[4]; Day 23, Cohort 6, 5/5/5/7.5 mg
  C-peptide AUC0-120 min placebo-adjusted decrease (OGTT): 0.6 ng·h/mL
  HOMA-IR Ratio (vs. placebo): 0.65
  glucose AUC0-120 min placebo-adjusted decrease (OGTT): 66 mg·h/dL
  insulin AUC0-120 min placebo-adjusted decrease (OGTT): 5 mIU*h/L
[4]; Day 23, Cohort 7, 5/5/8/12 mg
  C-peptide AUC0-120 min placebo-adjusted decrease (OGTT): 0.7 ng·h/mL
  HOMA-IR Ratio (vs. placebo): 0.89
  glucose AUC0-120 min placebo-adjusted decrease (OGTT): 97 mg·h/dL
  insulin AUC0-120 min placebo-adjusted decrease (OGTT): 127 mIU*h/L
[4]; Day 23, Cohort 8, 5/8/12/12 mg
  C-peptide AUC0-120 min placebo-adjusted decrease (OGTT): 5.1 ng·h/mL
  HOMA-IR Ratio (vs. placebo): 0.43**
  glucose AUC0-120 min placebo-adjusted decrease (OGTT): 88 mg·h/dL
  insulin AUC0-120 min placebo-adjusted decrease (OGTT): 71 mIU*h/L
[4]; [5]
  AUC0-120 min glucose during OGTT, mean percent decrease from baseline: 26-28%
  AUC0-120 min insulin during OGTT, mean percent decrease from baseline: 33-58%
  HOMA-IR, mean percent decrease from baseline: 26-33%
  fasting glucose, mean percent decrease from baseline: 8-10%
  fasting insulin, mean percent decrease from baseline: 20-26%
[4]; OGTT Day 23, Cohorts 7 & 8
  decrease in Cm. of C-peptide: 17-39%
  decrease in Cm. of insulin: 20-55%
[4]; OGTT Day 23, across all CT-388 cohorts (6-8)
  peak glucose excursion (Cmax) reduction vs. placebo: 16-31%
[4]; [6]
  HOMA-IR, placebo-adjusted difference: −0.46
  fasting C-Peptide, placebo-adjusted difference: -0.2 ng/mL
  fasting glucose, placebo-adjusted difference: -13 mg/dL
  fasting insulin, placebo-adjusted difference: −1 mIU/L
[4]; [7]
  HOMA-IR, placebo-adjusted difference: 0.58
  fasting C-Peptide, placebo-adjusted difference: 0.5 ng/mL
  fasting glucose, placebo-adjusted difference: -5 mg/dL
